Values of other authors, collected in patent publication US20250283018A1, “TOILET RIM BLOCKS WITH SCENT CHANGE” (SYMRISE AG, priority 2021, published 2025).
Where two headings read alike, the source gives them in different places.

How the values were obtained:
[1] = not given; remark: listed apart in the source

Question: Which logP (Table 1, components of MARINA) does the source give for CCCCCCCC1CCC(=O)O1 (stereo not shown) [ALDEHYD C14 SOG] here?
Answer: 3.06

Question: What about the logP (Table 2, components of PEACH) of the same molecule?
Answer: 3.06

Question: And the “Bp. [° C.]” value ([1]; Table 1, components of MARINA)?
Answer: 286 °C

Question: And the “Bp. [° C.]” value ([1]; Table 2, components of PEACH)?
Answer: 286 °C
